Data from PMC11467436, “Novel mechanisms of MITF regulation identified in a mouse suppressor screen”.
For at least one entry, the source does not settle the construct or the ends of the probe.

Chains of the proteins cited; added tags and fusions are not shown. A line that says so, or that is headed by a name, gives the form on record, which may keep a tag or linker.
MITF-sl (mouse) (Mus musculus), one chain, as listed by the source: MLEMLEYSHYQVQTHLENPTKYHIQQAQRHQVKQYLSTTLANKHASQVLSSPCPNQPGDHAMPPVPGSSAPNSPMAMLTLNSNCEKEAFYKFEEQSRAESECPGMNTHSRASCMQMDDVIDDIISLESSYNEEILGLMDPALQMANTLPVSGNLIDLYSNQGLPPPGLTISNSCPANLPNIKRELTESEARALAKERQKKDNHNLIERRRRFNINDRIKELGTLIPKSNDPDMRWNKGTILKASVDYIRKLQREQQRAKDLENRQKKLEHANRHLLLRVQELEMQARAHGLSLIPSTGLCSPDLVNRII
hMITF-sp (Homo sapiens), one chain, as listed by the source: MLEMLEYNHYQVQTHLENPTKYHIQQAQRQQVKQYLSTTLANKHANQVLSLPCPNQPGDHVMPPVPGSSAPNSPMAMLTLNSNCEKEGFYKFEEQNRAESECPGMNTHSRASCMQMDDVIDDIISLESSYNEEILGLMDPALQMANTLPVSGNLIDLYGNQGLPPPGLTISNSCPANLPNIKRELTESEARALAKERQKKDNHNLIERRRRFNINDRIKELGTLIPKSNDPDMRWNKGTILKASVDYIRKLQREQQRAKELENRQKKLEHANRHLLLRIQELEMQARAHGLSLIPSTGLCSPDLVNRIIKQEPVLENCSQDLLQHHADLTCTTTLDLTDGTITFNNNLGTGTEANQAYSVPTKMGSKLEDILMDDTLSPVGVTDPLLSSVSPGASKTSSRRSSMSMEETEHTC
MITF-sp (mouse) (Mus musculus), one chain, as listed by the source: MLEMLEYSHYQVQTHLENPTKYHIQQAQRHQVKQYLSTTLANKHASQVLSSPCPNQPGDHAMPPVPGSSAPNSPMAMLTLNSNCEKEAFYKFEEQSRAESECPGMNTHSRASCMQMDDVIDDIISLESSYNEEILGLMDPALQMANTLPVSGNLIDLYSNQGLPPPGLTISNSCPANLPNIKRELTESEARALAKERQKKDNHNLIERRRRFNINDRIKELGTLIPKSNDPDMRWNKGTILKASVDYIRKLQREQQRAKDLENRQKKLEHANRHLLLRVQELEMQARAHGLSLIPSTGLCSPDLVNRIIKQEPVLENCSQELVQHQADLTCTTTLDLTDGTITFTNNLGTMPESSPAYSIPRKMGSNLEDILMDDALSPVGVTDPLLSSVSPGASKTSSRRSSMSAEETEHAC
hMITF-WT (Homo sapiens), one chain, as listed by the source: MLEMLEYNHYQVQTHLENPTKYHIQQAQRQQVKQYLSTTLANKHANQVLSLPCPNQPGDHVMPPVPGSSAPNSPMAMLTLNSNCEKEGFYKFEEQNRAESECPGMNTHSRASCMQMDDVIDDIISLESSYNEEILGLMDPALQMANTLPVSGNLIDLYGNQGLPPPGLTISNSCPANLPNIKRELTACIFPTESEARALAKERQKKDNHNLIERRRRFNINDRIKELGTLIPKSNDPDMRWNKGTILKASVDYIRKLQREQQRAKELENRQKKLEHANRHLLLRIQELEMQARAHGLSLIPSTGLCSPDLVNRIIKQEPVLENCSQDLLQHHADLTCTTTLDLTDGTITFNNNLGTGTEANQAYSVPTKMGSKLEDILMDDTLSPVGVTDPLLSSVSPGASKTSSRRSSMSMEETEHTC
MITF-WT (mouse) (Mus musculus), one chain, as listed by the source: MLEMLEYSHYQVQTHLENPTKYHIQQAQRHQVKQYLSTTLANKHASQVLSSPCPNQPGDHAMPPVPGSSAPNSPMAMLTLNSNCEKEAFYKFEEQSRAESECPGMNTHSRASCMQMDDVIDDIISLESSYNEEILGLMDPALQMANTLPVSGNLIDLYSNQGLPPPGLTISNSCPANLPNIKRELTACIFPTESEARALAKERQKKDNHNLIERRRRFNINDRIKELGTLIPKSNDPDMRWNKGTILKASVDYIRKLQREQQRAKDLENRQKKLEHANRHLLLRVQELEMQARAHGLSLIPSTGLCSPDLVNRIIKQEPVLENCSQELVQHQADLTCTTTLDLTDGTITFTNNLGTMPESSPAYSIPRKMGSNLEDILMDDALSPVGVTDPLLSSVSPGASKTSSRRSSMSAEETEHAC
hMITF-sl (Homo sapiens), one chain, as listed by the source: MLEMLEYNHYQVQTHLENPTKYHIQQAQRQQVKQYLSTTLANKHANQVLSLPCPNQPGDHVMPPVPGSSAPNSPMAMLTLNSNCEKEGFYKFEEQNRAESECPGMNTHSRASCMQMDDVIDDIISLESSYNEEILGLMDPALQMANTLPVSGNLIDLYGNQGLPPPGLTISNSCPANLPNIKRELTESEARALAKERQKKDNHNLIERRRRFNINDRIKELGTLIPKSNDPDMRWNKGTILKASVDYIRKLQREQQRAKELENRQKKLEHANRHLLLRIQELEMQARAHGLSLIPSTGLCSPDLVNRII

Columns and labels:
[1] = test system: MITF-sp (mouse) (Mus musculus); test: EMSA; details: EMSA: 10 mM Hepes pH 7.9, 50 mM NaCl, 5 mM MgCl2, 0.1 mM EDTA, 2 mM DTT, 5% ethylene glycol, 5% glycerol, BSA, 30 min on ice; protein translated in vitro
[2] = test system: MITF-WT (mouse) (Mus musculus); test: EMSA; details: C5 MITF antibody supershift; EMSA: 10 mM Hepes pH 7.9, 50 mM NaCl, 5 mM MgCl2, 0.1 mM EDTA, 2 mM DTT, 5% ethylene glycol, 5% glycerol, BSA, 30 min on ice; protein translated in vitro; residues 1-419
[3] = test system: MITF-sl (mouse) (Mus musculus); test: EMSA; details: EMSA: 10 mM Hepes pH 7.9, 50 mM NaCl, 5 mM MgCl2, 0.1 mM EDTA, 2 mM DTT, 5% ethylene glycol, 5% glycerol, BSA, 30 min on ice; protein translated in vitro
hMITF-sp (Homo sapiens) = test: single-molecule fluorescence anisotropy; details: 165 mM KCl; 5' C6-amino linker on both strands; Single-molecule: 0.5 nM DNA, 10 mM Tris pH 7.4, 0.1 mM EDTA, 165 or 300 mM KCl, 1 mM MgCl2, 143 mM 2-ME, 0.01% Tween-20, 0.1 mg/mL BSA; recombinant protein
hMITF-WT (Homo sapiens) = test: single-molecule fluorescence anisotropy; details: 165 mM KCl; 5' C6-amino linker on both strands; Single-molecule: 0.5 nM DNA, 10 mM Tris pH 7.4, 0.1 mM EDTA, 165 or 300 mM KCl, 1 mM MgCl2, 143 mM 2-ME, 0.01% Tween-20, 0.1 mg/mL BSA; recombinant protein; residues 1-419
hMITF-sl (Homo sapiens) = test: single-molecule fluorescence anisotropy; details: 165 mM KCl; 5' C6-amino linker on both strands; Single-molecule: 0.5 nM DNA, 10 mM Tris pH 7.4, 0.1 mM EDTA, 165 or 300 mM KCl, 1 mM MgCl2, 143 mM 2-ME, 0.01% Tween-20, 0.1 mg/mL BSA; recombinant protein

| Sequence | binding result [1] | binding result [2] | binding result [3] | Kd (hMITF-sp (Homo sapiens)) | Kd (hMITF-WT (Homo sapiens)) | Kd (hMITF-sl (Homo sapiens)) |
| --- | --- | --- | --- | --- | --- | --- |
| AAAGTCAGTCATGTGCTTTTCAGA (double strand) [M-box EMSA probe] | binds | binds | binds | – | – | – |
| GAGATCATGTGTTGA (double strand) [M-box smFRET probe] | – | – | – | < 0.25 nM | < 0.25 nM | < 0.25 nM |
